According to PubChem BioAssay AID493014 (National Center for Advancing Translational Sciences (NCATS), 2011):
Screen size: about 340,000 compounds; about 170 (0.05%) were called active. The inconclusive results got no clear call from the source; some entries with a clear call stand among them for comparison. Calls come from the whole dose curve; as a rule, active = well fitted inhibition curve with a large enough effect in the signal ratio, with a control signal flat (not every such curve was filed as active); inconclusive = small, poorly fitted or top-dose-only effect, or effect the other way, or a change in a side signal; inactive = flat fitted curve, though single readings scatter; the % refers to the signal ratio. Potencies of inconclusive entries are doubtful fits and often do not repeat.

Experiment: qHTS Assay to Find Inhibitors of Chronic Active B-Cell Receptor Signaling;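 for activity change, negative = inhibition: plate controls were basal doxycycline-induced cells for no effect and cells given 10 µM MG132 for full effect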
Conditions: ABC-DLBCL IkBa-CBG/CBR reporter, luminescence ratio (green luciferase fused to IkBa over red control in TMD8 lymphoma cells), 4 h; activity change, negative = inhibition: at 46.1 µM (top of the series)
Source text: NIH Molecular Libraries Probe Production Network [MLPCN] NIH Chemical Genomics Center [NCGC] MLPCN Grant: 1 R03 DA031086-01A1 PI Name: Dr. R. Eric Davis NCGC Assay Overview: Diffuse large B-cell lymphoma (DLBCL) is the most common category of non-Hodgkin lymphoma, with ~20,000 new cases per year in the United States. DLBCL should be regarded as a collection of different neoplasms. Microarray gene expression analysis has defined two principal types of DLBCL, named for their similarity to normal B cell stages or activation states: a germinal center B-cell (GCB) type, and an activated B-cell (ABC) type. In ABC-DLBCL, a constitutive high-level activity of the NF-kappaB family of transcription factors has been observed (1) and NF-kappaB target genes are more highly expressed in ABC primary tumors than in GCB tumors. Functional studies have shown a constitutive high-level activity of the IkappaB (inhibitor of kappa-B) kinase (IKK) complex. […] Further analysis of DLBCL primary tumors for NF-kappaB target gene expression imply that although CARD11 is required for constitutive IKK activity in all ABC-DLBCL lines, mutations in CARD11 may be the root cause of IKK activation only in lines or tumors with such mutations. In other words, CARD11 mutations may explain NF-kappaB activation in only 10% of ABC-DLBCL cases. […] This process has been termed 'chronic active BCR signaling' (CABS). The goal of this screen is to find small-molecule inhibitors of the CABS pathway found in ABC-DLBCL lines using a cell-based assay that measures IkappaBalpa stability, which has already been extensively validated in the OCI-Ly3 line (PubChem AID:445; REF: 4). […] The assay uses green (CBG68) and red (CBR) emitting beetle luciferases [Chroma-GloTM developed by Promega Corp.] where the green luciferase is fused to IkappaBalpha and the red luciferase is present in its native state. Both luciferase genes are stably present in the TMD8 human ABC DLBCL cell line, but their expression is under the control of tetracycline-inducible promoters. Following the addition of doxycycline to induce expression of the luciferases, the green luminescence in control cultures rises only slowly because the CBG fusion partner IkappaBalpha is targeted by IKK activity for rapid degradation. In contrast, green luminescence rises rapidly in the presence of proteasome inhibitors or IKK inhibitors. The rise in red luminescence of CBR is not affected by proteasome or IKK inhibitors, and serves as normalization for cell number and nonspecific effects. Compounds were screened as a concentration-titration series that ranged from 46 uM to 3 nM.
NCGC Assay Protocol Summary: Cells were seeded in 1536-well plates at 5000 cells/4uL in IMDM medium containing 0.5% FBS, w/o phenol red, 1% penicillin/streptomycin. Then, 23 nL of compounds or DMSO were delivered to each well using a pin tool. One uL 20ng/ml doxycycline was then dispensed into white solid 1536-well plates and the plates were incubated at 37C/5% C02 in a cell incubator for 4 hrs. Then 4 uL luminescent substrate mix (in-house prepared: 150 mM Tris-Cl, pH 7.6, 3 mM MgCl2, 1% Triton X-100, 5 mM DTT, 0.2 mM CoA, 0.15 mM ATP, 5 mM D-luciferin, final concentrations) was added to each well. The plate was incubated at r.t. for 10-15 min. The plates were measured on a ViewLux plate reader for green luminescence (540/20 nm filter) and red luminescence (618/8 nm filter). The green and red luminescent signals were corrected for red and green luminescence filter overlap using previously determined filter calibration constants (determined using the procedure outlined in the Promega Technical Manual; REF 4). The %Activity was determined from the ratio of corrected green/red luminescent values. MG132 were used as control. […] Red luminescent %Activity was normalized to the difference between red luminesence in basal cells (0%Activity) and zero luminescence (-100% Activity). […]
Potency is the fitted concentration of half-maximal effect.

Structure (SMILES)	activity change, negative = inhibition	Potency
CC1=C(C(=O)OC2CCCCC2)C(c2ccc(F)cc2)NC(=O)N1 (configuration not stated)	inconclusive: -1.72%	–
Cn1c(SCc2ccc(Br)cc2)nc2ccccc2c1=O	inactive: 0.993%	–
COc1ccc(NC(=O)Cc2c(C)n(C(=O)c3ccc(Cl)cc3)c3ccc(OC)cc23)cc1	–	inconclusive: 23.1 µM [falling, single point]
CN(C)CCCNc1oc(-c2cccc(Cl)c2)nc1C#N	inconclusive: 6.85%	–
CC1CCCN(C(=S)NC2CCCC2)C1 (configuration not stated)	inconclusive: 9.05%	–
Cc1cc(C)cc(Nc2nc3c([nH]2)c(=O)n(C)c(=O)n3C)c1	inconclusive: 20.4%	–
CCc1nc(N2CCN(C(=S)NCCCOC)CC2)c2c3c(sc2n1)CCCC3	inconclusive: -1.54%	–
CCCCOC(=O)c1ccc(NC(=O)C(=O)NCc2ccco2)cc1	–	inconclusive: 6.31 µM [falling, single point]
CC(C)Cn1c(N)c(C(=O)COC(=O)c2ccc(O)cc2)c(=O)n(C)c1=O	inconclusive: 1.51%	–
CCc1nnc(NC(=O)C2CCCN2C(=O)Nc2ccccc2)s1 (configuration not stated)	inactive: -2.82%	–
CCNc1ccc(C(=O)OCC(=O)N(Cc2ccccc2)C(C)(C)C)cc1[N+](=O)[O-]	inactive: -5.1%	–
CCN(CC1CCCO1)C(=O)c1cc(COc2ccc(OC)cc2Cl)on1 (configuration not stated)	inactive: -1.41%	–
CCN(CC)c1ccc(/C=C/c2nc3ccccc3s2)cc1	–	inconclusive: 2.82 µM [falling, full curve]
O=C(Nc1ccc(Br)cc1Cl)c1cnccn1	inconclusive: 3.31%	–
CCCCCC1(C)NC(=S)N(c2ccccc2)N1 (configuration not stated)	inactive: -18.4%	–
COC(=O)C1=C(C)NC(=O)/C1=C\c1cc(C)n(-c2ccc(F)cc2)c1C	inconclusive: -24%	–
COC(=O)c1[nH]c2cc(OC)ccc2c1NC(=O)CCN1CCN(Cc2ccc3c(c2)OCO3)CC1	inconclusive: -0.0757%	–
O=C(/C=C/c1cccs1)NC(=S)NNC(=O)Cc1cccs1	–	inconclusive: 7.31 µM [falling, partial curve, poor fit]
COc1ccc(CCNC(=O)c2cccnc2)cc1	inactive: -9.4%	–
CCN(c1ccccc1)S(=O)(=O)c1nnc(NC(=O)C(C)(C)C)s1	inactive: 5.65%	–
CN(C)c1ccc(NC(=O)CN2C(=O)CC(c3ccccc3)=Nc3ccccc32)cc1	inactive: -0.203%	–
CCC(C)(C)NC(=O)C(c1ccccc1F)N(C(=O)c1ccn[nH]1)c1ccccc1 (configuration not stated)	inactive: -3.1%	–
N/C(=N\OC(=O)c1ccccc1Cl)c1ccccn1	–	inconclusive: 25.1 µM [falling, single point]
COc1ccccc1NC(=S)NC(=O)Cc1ccc(Cl)cc1	inconclusive: -4.17%	–
Cc1oc(-c2ccccc2)nc1C(=O)O	–	inconclusive: 0.794 µM [activator, full curve, poor fit]
Cc1cccc(C)c1NC(=O)/C(C#N)=C/c1ccc(-c2ccc(C(=O)O)cc2)o1	–	inconclusive: 20 µM [falling, partial curve]

Structure (SMILES)	activity change, negative = inhibition	Potency
COc1ccc(S(=O)(=O)Nc2ccc3c(c2)OCO3)cc1C	inactive: -11.2%	–
Cc1cc(N)c2cc(NC(=O)/C=C/c3ccccc3Cl)ccc2n1	inconclusive: 11.9%	–
Cc1cc2ncn(C(=O)N3CCOCC3)c2cc1C	inconclusive: 9.78%	–
CC(C)Oc1ccc(CNC(=O)CCC(=O)N2CCSc3ccccc32)cc1	inactive: -11.8%	–
CCOCCCNC(=S)N(Cc1ccco1)Cc1cc2cc3c(cc2[nH]c1=O)OCCO3	–	inconclusive: 2 µM [falling, full curve, poor fit]
C/C(=N\NC(=O)c1cc(C)oc1C)c1ccc(C)c([N+](=O)[O-])c1	inconclusive: -9.26%	–
O=C(/C=C/c1ccc(S(=O)(=O)N2CCOCC2)cc1)N1CCN(c2ccc(F)cc2)CC1	inconclusive: -6.53%	–
CCOC(=O)c1nnn(-c2nonc2N)c1-c1ccc(OC)cc1	inconclusive: 6.55%	–
Cc1ccc(CSc2nnc(-c3ccccc3N)c(=O)[nH]2)cc1	–	inconclusive: 29.1 µM [falling, single point]
COc1ccc(OC)c(C(=O)COC(=O)C2CC3CCCC(C2)C3=O)c1 (configuration not stated)	inconclusive: 14%	–
CCOC(=O)c1sc(=NC(=O)c2ccc(Br)cc2)n(C)c1C	–	inconclusive: 8.91 µM [falling, partial curve]
Cc1ccc2c(c1)nnn2C1CCN(C(=O)C23CC4CC(CC(C4)C2)C3)CC1	inconclusive: 12.5%	–
Cc1cc(C)nc(Nc2n[nH]c(-c3ccccc3C)n2)n1	–	inconclusive: 2.24 µM [falling, partial curve]
CC(=O)[C@@H]1[C@@H]2C(=O)N(c3ccccc3F)C(=O)[C@@H]2[C@H]2c3ccccc3C=NN12	–	inconclusive: 35.5 µM [falling, single point]
COc1ccc(C(CNC(=O)c2cccc(S(=O)(=O)N3CCCCC3)c2)N2CCCC2)cc1 (configuration not stated)	inactive: 8.3%	–
Cc1onc(-c2c(Cl)cccc2Cl)c1C(=O)N/N=C(\N)COc1ccc(Cl)cc1	inconclusive: -24.6%	–
COc1ccc(NC(=O)c2cccnc2SC)cc1OC	–	inconclusive: 11.2 µM [falling, partial curve]
CCOCCc1nnc(NC(=O)c2cc(OC)c(OC)c(OC)c2)s1	inconclusive: 5.76%	–
Cc1ccc(C(=O)NCC(=O)N2CCN(c3ncccn3)CC2)s1	inconclusive: -0.733%	–
COc1ccc(-n2c(SCCC(=O)O)nnc2-c2ccncc2)cc1	inconclusive: 14%	–
CCc1cccc(C)c1NC(=S)NCc1cccn1C	inactive: 0.702%	–
CC(=O)Nc1ccc(NC(=O)c2ccccc2Sc2ccc([N+](=O)[O-])cc2Cl)cc1	inactive: 1.7%	–
O=C1ON=C(c2ccccc2)/C1=C/c1ccccc1	inactive: 2.92%	–
COc1ccc(Cn2c(CCC(=O)Nc3ccc(C)c(C)c3)nc3cccnc32)cc1	–	inconclusive: 3.26 µM [falling, partial curve, poor fit]
O=C(Oc1ccc(Cl)c2cccnc12)c1ccco1	–	inconclusive: 3.66 µM [cytotoxic, single point]
O=C(COC(=O)C1(c2ccc(F)cc2)CCCC1)NCc1ccco1	inconclusive: 5.7%	–

Ordered by SMILES length (ascending): four of the compounds above.
Structure (SMILES)	activity change, negative = inhibition	Potency
Cc1cc2ncn(C(=O)N3CCOCC3)c2cc1C	inconclusive: 9.78%	–
O=C(Oc1ccc(Cl)c2cccnc12)c1ccco1	–	inconclusive: 3.66 µM [cytotoxic, single point]
COc1ccc(-n2c(SCCC(=O)O)nnc2-c2ccncc2)cc1	inconclusive: 14%	–
Cc1ccc2c(c1)nnn2C1CCN(C(=O)C23CC4CC(CC(C4)C2)C3)CC1	inconclusive: 12.5%	–
